Assay results as given in PubChem BioAssay AID489008 (National Center for Advancing Translational Sciences (NCATS), 2010).
The shares of active, inactive and inconclusive entries below differ from those in the screen. Potencies beside an inconclusive call are fits to weak or partial responses and may not hold up. Calls of active or inactive are those of the source. Calls follow the shape of the dose curve; as a rule, active = well fitted inhibition curve with a large enough effect; inconclusive = small, poorly fitted or top-dose-only effect; inactive = flat fitted curve, though single readings scatter.

Sequences of proteins named here, by UniProt entry; tags and fusion partners are left off. Residues count along the entry.
UniProt P02791, 2-175 limits assumed: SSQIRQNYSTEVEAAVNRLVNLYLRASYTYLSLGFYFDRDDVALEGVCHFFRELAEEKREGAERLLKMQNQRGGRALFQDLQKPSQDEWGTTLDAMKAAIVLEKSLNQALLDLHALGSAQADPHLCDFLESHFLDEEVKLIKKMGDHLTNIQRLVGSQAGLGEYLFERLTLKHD

These compounds were tested against Ferritin light chain (Equus caballus) (UniProt P02791) (assay: Confirmation Assay for Identification of Novel General Anesthetics). Settings: apoferritin 1-aminoanthracene fluorescence displacement.
Outline: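 Competitive displacement of profluorescent 1-aminoanthracene from 10 uM horse-spleen apoferritin in 50% saturated 1-AMA/PBS; 10 min RT, fluorescence Ex 380/Em 535. Normalized to free 1-AMA and complex; four-parameter Hill fit.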
Also: nearly all actives have a fitted effect of over 40% in size.
Potency is read from the fitted curve at half-maximal effect.

Row | Compound | Potency
1 | Cc1ccccc1CC(=O)N1CCCc2ccccc21 | inconclusive: 35.5 µM [inhibitor, partial curve]
2 | Cc1ccc(NC(=O)N2CCCCCC2)cc1C | active: 6.31 µM
3 | Cc1ccc(-c2c(C)sc3nc[nH]c(=O)c23)cc1C | inconclusive: 39.8 µM [inhibitor, partial curve]
4 | CN(C)CCNCc1ccc(OC2CCCC2)cc1 | inconclusive: 39.8 µM [inhibitor, partial curve]
5 | CC1CC(C)CN(C(=O)c2cc3c(s2)CCC3)C1 (stereo not drawn) | inconclusive: 14.1 µM [inhibitor, partial curve]
6 | COc1ccc(/C=C/C(=O)OCC(=O)NCCC2=CCCCC2)cc1 | inconclusive: 15.8 µM [inhibitor, partial curve]
7 | Cc1ccccc1-c1noc(-c2cc(C(C)C)[nH]n2)n1 | inconclusive: 31.6 µM [inhibitor, partial curve]
8 | Cc1nnc(SCc2ccc(F)cc2Cl)s1 | active: 22.4 µM
9 | O=c1[nH]cnc2sc3c(c12)CCCCC3 | active: 15.8 µM
10 | Cc1cccc(NS(=O)(=O)Cc2ccccc2)c1C | inconclusive: 35.5 µM [inhibitor, partial curve]
11 | Cc1cc2n(n1)C(c1sccc1C)Nc1c(C)cccc1-2 (stereo not drawn) | inconclusive: 14.1 µM [inhibitor, partial curve]
12 | COc1cc(CNCCO)ccc1OCCc1ccccc1 | active: 15.8 µM
13 | Cn1cccc1C(=O)NCC1CCCCC1 | inconclusive: 15.8 µM [inhibitor, partial curve]

Exported tab-delimited: entries from further up.
Row	Compound	Potency
9	O=c1[nH]cnc2sc3c(c12)CCCCC3	active: 15.8 µM
10	Cc1cccc(NS(=O)(=O)Cc2ccccc2)c1C	inconclusive: 35.5 µM [inhibitor, partial curve]
